Experimental data: paper PMC9649703
Results are given in words; binding and its absence hold for the method and conditions named. In cells and extracts the contact can be indirect. These calls come from enrichment with a bait or labelling near it, and not all partners need be listed.

By UniProt entry, the sequences of proteins in these tests, tags left out.
UniProt Q9P2H5: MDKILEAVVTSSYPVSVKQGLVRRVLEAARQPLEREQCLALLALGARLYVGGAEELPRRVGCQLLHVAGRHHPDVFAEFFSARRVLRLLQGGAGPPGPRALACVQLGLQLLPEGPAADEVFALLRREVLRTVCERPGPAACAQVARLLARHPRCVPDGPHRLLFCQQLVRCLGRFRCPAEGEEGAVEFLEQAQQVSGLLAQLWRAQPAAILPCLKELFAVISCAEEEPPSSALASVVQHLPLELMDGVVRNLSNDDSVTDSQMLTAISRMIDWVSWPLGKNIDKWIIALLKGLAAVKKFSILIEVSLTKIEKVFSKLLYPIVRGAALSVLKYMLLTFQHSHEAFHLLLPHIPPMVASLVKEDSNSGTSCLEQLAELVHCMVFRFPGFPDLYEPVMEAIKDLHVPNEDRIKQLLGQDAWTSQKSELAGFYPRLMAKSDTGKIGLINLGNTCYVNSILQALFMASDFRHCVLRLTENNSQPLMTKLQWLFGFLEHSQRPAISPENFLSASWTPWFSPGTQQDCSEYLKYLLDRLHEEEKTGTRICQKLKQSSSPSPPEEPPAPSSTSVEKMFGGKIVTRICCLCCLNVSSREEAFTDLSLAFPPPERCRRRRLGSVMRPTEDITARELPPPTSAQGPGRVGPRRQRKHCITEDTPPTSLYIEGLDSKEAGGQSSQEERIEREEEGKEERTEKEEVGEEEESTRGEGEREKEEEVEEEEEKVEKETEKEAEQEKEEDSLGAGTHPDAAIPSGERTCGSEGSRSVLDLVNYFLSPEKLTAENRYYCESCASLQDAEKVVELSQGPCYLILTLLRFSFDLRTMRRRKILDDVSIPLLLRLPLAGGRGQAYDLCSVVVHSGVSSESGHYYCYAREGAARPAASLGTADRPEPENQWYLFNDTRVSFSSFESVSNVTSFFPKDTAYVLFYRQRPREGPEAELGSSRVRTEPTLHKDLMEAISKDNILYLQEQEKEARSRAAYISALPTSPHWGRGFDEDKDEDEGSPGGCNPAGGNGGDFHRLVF
UniProt Q9UM11: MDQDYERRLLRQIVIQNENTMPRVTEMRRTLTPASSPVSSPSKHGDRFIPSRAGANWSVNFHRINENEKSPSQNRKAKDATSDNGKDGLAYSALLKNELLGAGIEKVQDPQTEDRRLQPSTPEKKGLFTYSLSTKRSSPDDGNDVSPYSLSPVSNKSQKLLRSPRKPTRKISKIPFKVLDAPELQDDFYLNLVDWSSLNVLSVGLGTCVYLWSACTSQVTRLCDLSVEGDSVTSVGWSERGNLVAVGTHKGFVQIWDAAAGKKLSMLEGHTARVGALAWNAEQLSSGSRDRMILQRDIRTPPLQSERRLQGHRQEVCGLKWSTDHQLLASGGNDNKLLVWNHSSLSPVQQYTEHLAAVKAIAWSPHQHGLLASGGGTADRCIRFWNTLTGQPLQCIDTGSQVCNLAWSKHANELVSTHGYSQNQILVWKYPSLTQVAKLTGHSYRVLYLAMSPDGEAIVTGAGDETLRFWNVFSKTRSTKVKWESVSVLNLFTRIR
UniProt Q7Z434: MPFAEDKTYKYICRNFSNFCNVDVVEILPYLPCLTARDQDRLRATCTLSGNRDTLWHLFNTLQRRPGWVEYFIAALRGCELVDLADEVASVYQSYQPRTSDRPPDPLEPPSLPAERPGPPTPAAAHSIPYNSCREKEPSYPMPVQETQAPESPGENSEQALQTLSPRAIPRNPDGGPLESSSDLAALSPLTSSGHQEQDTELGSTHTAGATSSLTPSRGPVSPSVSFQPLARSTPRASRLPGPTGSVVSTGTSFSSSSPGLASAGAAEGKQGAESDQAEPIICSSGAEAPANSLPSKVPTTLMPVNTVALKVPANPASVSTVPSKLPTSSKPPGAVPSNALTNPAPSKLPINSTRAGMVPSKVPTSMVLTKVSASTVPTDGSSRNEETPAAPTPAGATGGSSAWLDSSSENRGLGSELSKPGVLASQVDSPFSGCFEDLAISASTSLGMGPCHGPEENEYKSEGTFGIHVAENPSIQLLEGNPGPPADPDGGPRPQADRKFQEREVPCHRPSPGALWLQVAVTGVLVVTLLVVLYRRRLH
UniProt P55201: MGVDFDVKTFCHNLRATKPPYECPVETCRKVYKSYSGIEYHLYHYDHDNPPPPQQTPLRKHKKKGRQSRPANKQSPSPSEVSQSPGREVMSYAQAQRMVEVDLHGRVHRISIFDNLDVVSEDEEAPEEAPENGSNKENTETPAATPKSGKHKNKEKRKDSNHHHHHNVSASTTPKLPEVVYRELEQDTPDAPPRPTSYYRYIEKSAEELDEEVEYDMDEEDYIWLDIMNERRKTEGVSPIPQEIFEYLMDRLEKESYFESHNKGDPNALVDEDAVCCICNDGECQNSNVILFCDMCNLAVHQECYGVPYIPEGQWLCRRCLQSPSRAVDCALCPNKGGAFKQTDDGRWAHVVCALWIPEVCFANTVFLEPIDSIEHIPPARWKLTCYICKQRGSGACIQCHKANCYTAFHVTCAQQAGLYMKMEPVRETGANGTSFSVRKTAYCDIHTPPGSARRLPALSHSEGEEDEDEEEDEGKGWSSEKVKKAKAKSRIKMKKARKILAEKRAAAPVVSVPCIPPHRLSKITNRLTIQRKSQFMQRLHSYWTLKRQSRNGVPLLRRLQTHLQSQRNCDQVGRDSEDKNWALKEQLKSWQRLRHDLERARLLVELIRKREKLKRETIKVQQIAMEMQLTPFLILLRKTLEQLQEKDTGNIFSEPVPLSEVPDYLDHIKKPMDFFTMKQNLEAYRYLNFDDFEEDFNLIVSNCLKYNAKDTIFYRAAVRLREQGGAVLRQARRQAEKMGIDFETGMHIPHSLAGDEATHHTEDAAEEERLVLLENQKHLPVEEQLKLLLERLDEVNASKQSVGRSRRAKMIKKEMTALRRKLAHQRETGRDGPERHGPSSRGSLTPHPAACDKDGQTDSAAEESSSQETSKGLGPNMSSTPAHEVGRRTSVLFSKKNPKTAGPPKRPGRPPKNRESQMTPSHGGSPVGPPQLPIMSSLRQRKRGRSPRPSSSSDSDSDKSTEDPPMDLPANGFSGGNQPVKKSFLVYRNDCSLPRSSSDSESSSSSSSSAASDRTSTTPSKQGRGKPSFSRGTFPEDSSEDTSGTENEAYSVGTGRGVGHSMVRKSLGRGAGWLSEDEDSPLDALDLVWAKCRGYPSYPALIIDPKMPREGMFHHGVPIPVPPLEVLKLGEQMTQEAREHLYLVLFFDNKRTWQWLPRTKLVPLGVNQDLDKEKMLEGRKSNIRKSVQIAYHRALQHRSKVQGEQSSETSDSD

Biological target: FLAG-HA-USP35 (UniProt Q9P2H5)
Experiment: affinity purification with mass spectrometry; Tandem Affinity Purification (TAP): lysate of C4-2b cells with FLAG-HA-USP35, treated with 10 μM MG132 for 4 h, immunoprecipitated with anti-FLAG and anti-HA beads; silver staining; peptides in the complex identified

## FZR1 (from UniProt Q9UM11 1-496)
  binding: binds

## MAVS (from UniProt Q7Z434 1-540)
  binding: binds

## BRPF1 (from UniProt P55201 1-1214)
  binding: binds

B1: TNIP2 (protein, UniProt Q8NFZ5 1-429)
chain: MSRDPGSGGWEEAPRAAAALCTLYHEAGQRLRRLQDQLAARDALIARLRARLAALEGDAAPSLVDALLEQVARFREQLRRQEGGAAEAQMRQEIERLTERLEEKEREMQQLLSQPQHEREKEVVLLRRSMAEGERARAASDVLCRSLANETHQLRRTLTATAHMCQHLAKCLDERQHAQRNVGERSPDQSEHTDGHTSVQSVIEKLQEENRLLKQKVTHVEDLNAKWQRYNASRDEYVRGLHAQLRGLQIPHEPELMRKEISRLNRQLEEKINDCAEVKQELAASRTARDAALERVQMLEQQILAYKDDFMSERADRERAQSRIQELEEKVASLLHQVSWRQDSREPDAGRIHAGSKTAKYLAADALELMVPGGWRPGTGSQQPEPPAEGGHPGAAQRGQGDLQCPHCLQCFSDEQGEELLRHVAECCQ
  binding: binds
